## Primary screen of a compound library

By UniProt entry, the sequences of proteins in these tests, tags left out. Residues count along the entry.
UniProt Q8IDJ8, 1-583: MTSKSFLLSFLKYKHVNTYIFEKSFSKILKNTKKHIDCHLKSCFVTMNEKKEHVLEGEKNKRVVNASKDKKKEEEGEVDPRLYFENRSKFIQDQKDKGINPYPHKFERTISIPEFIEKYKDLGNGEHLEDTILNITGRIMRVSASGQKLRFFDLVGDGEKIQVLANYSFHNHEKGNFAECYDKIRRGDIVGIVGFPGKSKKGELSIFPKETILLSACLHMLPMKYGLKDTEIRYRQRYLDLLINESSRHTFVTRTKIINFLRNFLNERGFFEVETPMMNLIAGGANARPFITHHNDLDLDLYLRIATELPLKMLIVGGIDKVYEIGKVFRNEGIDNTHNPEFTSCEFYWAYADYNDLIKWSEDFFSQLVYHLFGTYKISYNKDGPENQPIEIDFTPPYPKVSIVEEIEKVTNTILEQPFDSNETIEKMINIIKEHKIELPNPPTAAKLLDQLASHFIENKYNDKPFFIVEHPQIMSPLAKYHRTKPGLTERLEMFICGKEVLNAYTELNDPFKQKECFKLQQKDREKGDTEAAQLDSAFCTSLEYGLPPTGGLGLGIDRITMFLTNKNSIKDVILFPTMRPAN

Source: ChEMBL document CHEMBL3988442, “University of Dundee, Small-Polar-MMV Screening Library” (2021).

Toxoplasma: 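Assay of Toxoplasma gondii numbers, read through their beta-galactosidase reporter with a colour substrate. Tested at 10 µM. The record gives no direction; the compounds picked for IC50 retests had high values, so higher reads as fewer parasites. About 67,000 compounds were tested under these conditions; 0.38% (about 260) showed 50% or more at least once.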
T. brucei: 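Whole-parasite assay of Trypanosoma brucei over 72 hours; the read-out is not stated. Compounds at 30 µM. The record gives no direction; compounds that gave an IC50 in retests scored well above the rest, so higher reads as stronger inhibition. Values scatter widely below zero; nearly all retest evidence comes from the higher of the two concentrations used. Of about 64,000 compounds tested this way, about 940 (1.5%) reached 50% or more in at least one test.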
Leishmania in macrophages: 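Cell assay of Leishmania donovani living inside macrophages; the read-out is not stated. Concentration: 30 µM. Higher reads as stronger inhibition (inferred: compounds with an IC50 in retests scored well above the rest). About 69,000 compounds were tested under these conditions; 1.5% (about 1,000) showed 50% or more at least once.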
PfKRS1: 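Enzyme assay of the cytosolic lysyl-tRNA synthetase in 384-well plates, read by luminescence. Target: Lysine-tRNA ligase, Plasmodium falciparum 3D7 (UniProt Q8IDJ8). Concentration: 30 µM. Higher reads as stronger inhibition, judged from the few compounds that gave an IC50. Size under these conditions: about 69,000 compounds, about 49 of them at 50% or above in at least one test.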

The filed quantity is “Percent Effect” (%). The controls that fix the scale are not given in the record; negative values are as filed. Compounds were drawn at random from those tested, without regard to their results. Two or more numbers in one place are separate tests of the same structure; such repeats can differ widely.

{"smiles": "Cc1ccc(C(=O)NCc2ccnc(N(C)C)c2)c(C)c1", "Toxoplasma": -39.14, "T. brucei": -6.29, "Leishmania in macrophages": 24.48, "PfKRS1": 0.4359}
{"smiles": "CCc1nnc2n1CCN(C(=O)C(C)Oc1ccc(C#N)cc1)C2", "stereo": "stereo unspecified", "Toxoplasma": 20.23, "T. brucei": -51.63, "Leishmania in macrophages": 13.15, "PfKRS1": 5.567}
{"smiles": "CCN(Cc1ccc2c(c1)OCO2)Cc1nc2c(cnn2C)c(=O)[nH]1", "Toxoplasma": -20.25, "Leishmania in macrophages": 24.13, "PfKRS1": 1.382}
{"smiles": "COCCNC(=O)C(C)S(=O)(=O)c1ccc(OC)cc1", "stereo": "stereo unspecified", "Toxoplasma": -2.09, "T. brucei": -95.74, "Leishmania in macrophages": -13.67, "PfKRS1": -3.516}
{"smiles": "CCSCC(C)NCc1cn2ccccc2n1", "stereo": "stereo unspecified", "Toxoplasma": -8.24, "T. brucei": -18.54, "Leishmania in macrophages": 1.103, "PfKRS1": 2.603}
{"smiles": "CCS(=O)(=O)NCC(=O)NC1(C)CCc2ccccc2C1", "stereo": "stereo unspecified", "Toxoplasma": -9.54, "T. brucei": -67.86, "Leishmania in macrophages": 21.54, "PfKRS1": 0.5686}
{"smiles": "[H][C@@]12CN(CCc3ccccc3)C[C@]1([H])N(CCCN1CCOCC1)C(=O)O2", "Toxoplasma": -3.571, "T. brucei": -26.55, "Leishmania in macrophages": -2.872}
{"smiles": "CN(C)S(=O)(=O)N(C)C(c1cccnc1)c1ccc(F)c(F)c1", "stereo": "stereo unspecified", "Toxoplasma": 8.799, "T. brucei": -104.7, "Leishmania in macrophages": -2.669, "PfKRS1": 2.748}
{"smiles": "Cc1n[nH]cc1CNC(=O)Nc1cccc(OCC(F)(F)F)c1", "Toxoplasma": 2.655, "T. brucei": -12.49, "Leishmania in macrophages": 14.96, "PfKRS1": 6.796}
{"smiles": "Cn1cc(C2CCCN2Cc2csc(-c3ccccc3)n2)cn1", "stereo": "stereo unspecified", "Toxoplasma": -9.125, "Leishmania in macrophages": 23.09, "PfKRS1": 1.868}
{"smiles": "Cc1noc(C)c1CN1C[C@@H]2CCCO[C@@H]2[C@H](NS(C)(=O)=O)C1", "PfKRS1": 8}
{"smiles": "O=C1[C@H]2CC[C@H](CN(C3CSCCSC3)C2)N1Cc1cscn1", "PfKRS1": 5.18}
{"smiles": "COC(=O)CC(NC(=O)c1ccccc1OC)c1cccs1", "stereo": "stereo unspecified", "Toxoplasma": 10.09, "T. brucei": -18.36, "Leishmania in macrophages": -7.092, "PfKRS1": 3.639}
{"smiles": "Cc1ccc(C(CCNCCCN(C)C)C2CCOC(C)(C)C2)cc1.O=C(O)C(=O)O", "stereo": "stereo unspecified", "Toxoplasma": 86.28, "Leishmania in macrophages": 85.22}
{"smiles": "CC(C)(C)N1CC(C(=O)NCc2nc(C3CCCCC3)no2)CC1=O", "stereo": "stereo unspecified", "Toxoplasma": 5.613, "T. brucei": -3.85, "Leishmania in macrophages": 19.48, "PfKRS1": 5.246}
{"smiles": "O=C(O)C(F)(F)F.[H][C@@]12CCN(C3CCOCC3)C[C@@]1([H])[C@H](C(=O)NCc1ccco1)CCO2", "Toxoplasma": -9, "T. brucei": -32.7, "Leishmania in macrophages": -1.233}
{"smiles": "CCCNC(=O)c1cccc(CNCc2csc(CC)n2)c1", "Toxoplasma": 4.372, "T. brucei": -27.5, "Leishmania in macrophages": -35.65, "PfKRS1": 3.255}
{"smiles": "CN1CCCN(C(=O)c2nc3sccn3c2-c2ncc[nH]2)CC1", "T. brucei": -18.39, "Leishmania in macrophages": 0.9103, "PfKRS1": 8.559}
{"smiles": "CCc1ncncc1C(=O)N1CCCN(Cc2ccccc2C)CC1", "Toxoplasma": -0.03613, "T. brucei": 18.4, "Leishmania in macrophages": 41.09, "PfKRS1": -1.164}
{"smiles": "CC(NC(=O)Cc1ccccc1F)C(=O)N1CCS(=O)(=O)CC1", "stereo": "stereo unspecified", "Toxoplasma": -5.31, "T. brucei": -43.01, "Leishmania in macrophages": 5.505, "PfKRS1": 7.904}
{"smiles": "O=C(O)C(F)(F)F.O=C(O)C(F)(F)F.[H][C@@]12CN(Cc3ccco3)C[C@]1([H])[C@@H](OC)CCN2c1ncc(F)cn1", "Toxoplasma": 10.96, "T. brucei": -8.794, "Leishmania in macrophages": "9.591 & 23.45"}
{"smiles": "COCCN1CCC(CN(CC2CCCO2)C(=O)COC)CC1", "stereo": "stereo unspecified", "Toxoplasma": -4.885, "T. brucei": -1.893, "Leishmania in macrophages": -10.91, "PfKRS1": 1.489}
{"smiles": "COCCN(Cc1cnn(C)c1)c1nc2c(s1)c(C)nn2C", "Toxoplasma": -19.7, "T. brucei": -51.3, "Leishmania in macrophages": 12.67, "PfKRS1": 3.976}
{"smiles": "Nc1nc(Cn2ccnc2-c2cc(CN3CCCC3)cs2)cs1", "Toxoplasma": 0.8999, "T. brucei": -5.472, "Leishmania in macrophages": 19.15, "PfKRS1": 6.499}
{"smiles": "O=C(C[C@@H]1COC[C@H]2CN(C(=O)c3cccnc3)C[C@@H]12)N1CCCC1", "PfKRS1": 4.394}

2 of the entries, repeated:

SMILES,Toxoplasma,T. brucei,Leishmania in macrophages,PfKRS1
COC(=O)CC(NC(=O)c1ccccc1OC)c1cccs1 (stereo unspecified),10.09,-18.36,-7.092,3.639
CC(C)(C)N1CC(C(=O)NCc2nc(C3CCCCC3)no2)CC1=O (stereo unspecified),5.613,-3.85,19.48,5.246